The text below walks through data of US8093232B2, “2α-methyl-19-nor-(20S)-1α-hydroxy-bishomopregnacalciferol and its uses” (Wisconsin Alumni Research Foundation, priority 2004, dated 2012).

For this assay, the system named is 24-hydroxylase (24 Ohase) gene promoter. Kind of assay: In vitro transcription assay (24-hydroxylase promoter luciferase reporter in ROS 17/2.8 bone cells). The assay is classed as cell-based. To be noted: ROS 17/2.8 cells, 24-OHase promoter-luciferase, 16 h; FIG. 3; read-out: EC50, transcriptional activity in bone cells. As for the experimental part: In Vitro Transcription Assay
Transcription activity was measured in ROS 17/2.8 (bone) cells that were stably transfected with a 24-hydroxylase (24 Ohase) gene promoter upstream of a luciferase reporter gene (Arbour et al., 1998). Cells were given a range of doses. Sixteen hours after dosing the cells were harvested and luciferase activities were measured using a luminometer.
RLU=relative luciferase units.

SMILES strings stand for the structures.

Regarding `C=C1/C(=C\C=C2/CCC[C@]3(C)[C@@H]([C@H](C)CCCC(C)(C)O)CC[C@@H]23)C[C@@H](O)C[C@@H]1O` [1,25(OH)2D3, 1α,25-dihydroxyvitamin D3, reference compound], the concentration for a half-maximal effect (EC50) came out at 2.9 nM.
